Measured values from publication PMC9693918, “May Sulfonamide Inhibitors of Carbonic Anhydrases from Mammaliicoccus sciuri Prevent Antimicrobial Resistance Due to Gene Transfer to Other Harmful Staphylococci?” (International Journal of Molecular Sciences, 2022).

Target: T1, MscCAγ (M. sciuri γ-CA) (Mammaliicoccus sciuri, UniProt A0AB37HNM1)
T1 construct: gene OWO77_11715
T1 sequence (A0AB37HNM1 1-169): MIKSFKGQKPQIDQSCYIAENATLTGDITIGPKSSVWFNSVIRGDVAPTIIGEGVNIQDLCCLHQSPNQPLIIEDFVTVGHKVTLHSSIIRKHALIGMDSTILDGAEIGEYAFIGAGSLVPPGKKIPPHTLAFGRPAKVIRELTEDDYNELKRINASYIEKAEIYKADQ
Test: stopped-flow CO2 hydration assay, phenol red
Type: biochemical
Description: stopped-flow CO2 hydration assay, phenol red on MscCAγ (M. sciuri γ-CA)

| Ki [nM] | Structure (SMILES) |
| --- | --- |
| 245 | CC(=O)Nc1nnc(S(N)(=O)=O)s1 [AAZ, acetazolamide] |
| 43.8 | CCN[C@H]1C[C@H](C)S(=O)(=O)c2sc(S(N)(=O)=O)cc21 [DZA] |
